These are yes or no findings as the source states them, for the method shown. For some assays here: Binding calls can cover weak binding; strength is not graded here. For some assays here: Binding seen in cells or lysates may run through a third protein.
Columns and labels:
[1] = molecular target: SBP-FLNA del41 (full length) (human) (UniProt P21333); assay: pull-down; SBP-FLNA (WT or del41) from transfected HEK293A lysate held on streptavidin beads, then hsSKM or MEF cell lysate, 1 h, 4°C, washed with TBS-0.1% Tx; blot anti-LARP4
[2] = molecular target: GST-Larp4 110-269aa (mouse) (UniProt Q8BWW4); assay: pull-down; GST-Larp4 (full length, fragments or La modules) on glutathione beads, purified His-eGFP-FLNA R21-22 (2 μM in Figures 3C and 5C), TBS-0.1% Tx, 1 h, room temperature; blot anti-GFP; both purified
[3] = molecular target: GST-Larp4 (mouse, full length) (mouse) (UniProt Q8BWW4); assay: as above
[4] = molecular target: GST-Larp4 110-277aa (mouse) (UniProt Q8BWW4); assay: as above

Amino acid sequences for entries named in this document (tags omitted). A change or cut given only in a name is not applied to a line headed by its entry. Chains listed by the source or under a name are the forms on record and can include a tag or linker. Residues count along the entry.
UniProt P21333: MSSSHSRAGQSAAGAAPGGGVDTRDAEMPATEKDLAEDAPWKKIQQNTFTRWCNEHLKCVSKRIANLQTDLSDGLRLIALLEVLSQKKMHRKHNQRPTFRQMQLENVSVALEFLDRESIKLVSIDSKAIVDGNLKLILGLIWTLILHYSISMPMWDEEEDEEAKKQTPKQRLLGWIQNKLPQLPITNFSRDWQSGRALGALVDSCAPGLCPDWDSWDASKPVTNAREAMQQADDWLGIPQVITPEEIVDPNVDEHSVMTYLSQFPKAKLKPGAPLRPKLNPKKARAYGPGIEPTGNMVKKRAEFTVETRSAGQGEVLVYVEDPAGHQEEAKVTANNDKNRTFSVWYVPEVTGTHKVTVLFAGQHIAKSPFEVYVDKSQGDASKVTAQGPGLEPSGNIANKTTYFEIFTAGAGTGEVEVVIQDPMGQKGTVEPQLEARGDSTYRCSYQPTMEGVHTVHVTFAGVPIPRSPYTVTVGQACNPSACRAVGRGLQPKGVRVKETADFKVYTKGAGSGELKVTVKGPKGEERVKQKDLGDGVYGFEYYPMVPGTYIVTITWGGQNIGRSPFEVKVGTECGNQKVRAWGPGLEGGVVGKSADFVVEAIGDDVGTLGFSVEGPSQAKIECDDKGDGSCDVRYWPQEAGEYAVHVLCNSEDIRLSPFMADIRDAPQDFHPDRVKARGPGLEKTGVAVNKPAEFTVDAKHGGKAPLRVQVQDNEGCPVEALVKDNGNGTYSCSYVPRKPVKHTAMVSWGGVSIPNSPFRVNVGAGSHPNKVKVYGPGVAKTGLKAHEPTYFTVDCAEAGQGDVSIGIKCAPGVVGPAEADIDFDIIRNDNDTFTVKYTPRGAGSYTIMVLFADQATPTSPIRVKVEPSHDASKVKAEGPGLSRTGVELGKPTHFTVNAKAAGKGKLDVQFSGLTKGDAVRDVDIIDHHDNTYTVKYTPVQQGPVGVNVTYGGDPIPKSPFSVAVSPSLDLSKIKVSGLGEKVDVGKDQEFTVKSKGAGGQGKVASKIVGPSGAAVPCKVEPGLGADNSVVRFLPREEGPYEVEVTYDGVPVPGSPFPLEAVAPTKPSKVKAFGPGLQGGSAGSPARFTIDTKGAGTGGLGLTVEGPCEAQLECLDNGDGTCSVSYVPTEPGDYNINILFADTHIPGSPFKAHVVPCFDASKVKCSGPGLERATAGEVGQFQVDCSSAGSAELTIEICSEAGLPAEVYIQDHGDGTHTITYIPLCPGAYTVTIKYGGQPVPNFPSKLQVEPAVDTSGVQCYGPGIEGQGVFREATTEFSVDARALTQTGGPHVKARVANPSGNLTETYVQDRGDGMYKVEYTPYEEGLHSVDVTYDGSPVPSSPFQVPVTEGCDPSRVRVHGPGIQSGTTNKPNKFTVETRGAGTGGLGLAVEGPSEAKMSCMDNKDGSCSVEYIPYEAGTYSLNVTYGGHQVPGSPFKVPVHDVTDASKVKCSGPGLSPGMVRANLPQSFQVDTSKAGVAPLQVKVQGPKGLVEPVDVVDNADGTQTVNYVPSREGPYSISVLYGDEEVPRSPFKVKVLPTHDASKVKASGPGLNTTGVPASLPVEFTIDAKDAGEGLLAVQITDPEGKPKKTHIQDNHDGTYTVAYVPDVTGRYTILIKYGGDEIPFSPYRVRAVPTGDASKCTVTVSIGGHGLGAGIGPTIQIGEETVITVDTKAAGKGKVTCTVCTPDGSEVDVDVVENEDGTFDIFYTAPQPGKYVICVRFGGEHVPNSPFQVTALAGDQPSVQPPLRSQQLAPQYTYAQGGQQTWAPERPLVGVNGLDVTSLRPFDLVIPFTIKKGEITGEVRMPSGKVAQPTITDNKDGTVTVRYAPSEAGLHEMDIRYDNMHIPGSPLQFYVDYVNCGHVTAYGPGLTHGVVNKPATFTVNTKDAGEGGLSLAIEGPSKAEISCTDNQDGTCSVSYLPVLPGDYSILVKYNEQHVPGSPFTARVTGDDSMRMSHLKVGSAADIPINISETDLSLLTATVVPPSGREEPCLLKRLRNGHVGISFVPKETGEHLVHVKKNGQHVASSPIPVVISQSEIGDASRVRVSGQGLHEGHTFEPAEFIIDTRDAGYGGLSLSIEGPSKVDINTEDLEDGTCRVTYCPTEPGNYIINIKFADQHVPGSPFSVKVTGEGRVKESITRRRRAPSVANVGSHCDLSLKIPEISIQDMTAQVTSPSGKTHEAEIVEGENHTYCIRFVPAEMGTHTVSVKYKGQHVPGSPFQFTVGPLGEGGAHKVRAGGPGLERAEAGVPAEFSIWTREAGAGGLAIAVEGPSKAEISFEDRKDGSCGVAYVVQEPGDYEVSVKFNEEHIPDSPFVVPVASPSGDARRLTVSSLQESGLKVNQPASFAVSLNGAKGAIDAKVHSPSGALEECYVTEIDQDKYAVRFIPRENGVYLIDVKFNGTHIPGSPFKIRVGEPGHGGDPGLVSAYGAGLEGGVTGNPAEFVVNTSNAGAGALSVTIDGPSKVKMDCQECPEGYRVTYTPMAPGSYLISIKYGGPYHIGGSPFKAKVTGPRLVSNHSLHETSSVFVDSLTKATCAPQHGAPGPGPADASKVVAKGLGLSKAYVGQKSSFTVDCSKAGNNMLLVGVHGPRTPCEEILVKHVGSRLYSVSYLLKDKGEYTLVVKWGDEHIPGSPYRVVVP
UniProt Q8BWW4: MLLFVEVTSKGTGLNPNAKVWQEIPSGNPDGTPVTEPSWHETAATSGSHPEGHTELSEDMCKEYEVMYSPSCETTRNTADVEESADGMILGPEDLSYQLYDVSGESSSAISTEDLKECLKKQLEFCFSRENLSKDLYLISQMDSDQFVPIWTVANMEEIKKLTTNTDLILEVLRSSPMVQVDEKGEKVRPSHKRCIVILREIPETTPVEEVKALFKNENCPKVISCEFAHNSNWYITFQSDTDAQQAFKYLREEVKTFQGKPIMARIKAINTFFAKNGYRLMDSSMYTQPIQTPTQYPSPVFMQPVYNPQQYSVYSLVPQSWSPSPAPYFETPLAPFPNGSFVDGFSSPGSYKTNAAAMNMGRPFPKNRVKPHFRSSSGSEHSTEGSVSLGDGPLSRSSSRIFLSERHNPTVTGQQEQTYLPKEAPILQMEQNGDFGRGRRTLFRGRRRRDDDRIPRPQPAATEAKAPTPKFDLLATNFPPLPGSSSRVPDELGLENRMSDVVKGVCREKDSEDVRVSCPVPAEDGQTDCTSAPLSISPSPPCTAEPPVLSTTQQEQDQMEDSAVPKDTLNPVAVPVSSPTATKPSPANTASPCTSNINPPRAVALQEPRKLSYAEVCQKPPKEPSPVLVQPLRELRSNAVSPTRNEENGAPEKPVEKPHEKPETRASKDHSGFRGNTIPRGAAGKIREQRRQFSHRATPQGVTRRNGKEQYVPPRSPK
GST-Larp4 110-277aa: residues 110-277 of Q8BWW4
GST-Larp4 110-269aa: residues 110-269 of Q8BWW4
GST-Larp4 (mouse, full length) (Q8BWW4, form named): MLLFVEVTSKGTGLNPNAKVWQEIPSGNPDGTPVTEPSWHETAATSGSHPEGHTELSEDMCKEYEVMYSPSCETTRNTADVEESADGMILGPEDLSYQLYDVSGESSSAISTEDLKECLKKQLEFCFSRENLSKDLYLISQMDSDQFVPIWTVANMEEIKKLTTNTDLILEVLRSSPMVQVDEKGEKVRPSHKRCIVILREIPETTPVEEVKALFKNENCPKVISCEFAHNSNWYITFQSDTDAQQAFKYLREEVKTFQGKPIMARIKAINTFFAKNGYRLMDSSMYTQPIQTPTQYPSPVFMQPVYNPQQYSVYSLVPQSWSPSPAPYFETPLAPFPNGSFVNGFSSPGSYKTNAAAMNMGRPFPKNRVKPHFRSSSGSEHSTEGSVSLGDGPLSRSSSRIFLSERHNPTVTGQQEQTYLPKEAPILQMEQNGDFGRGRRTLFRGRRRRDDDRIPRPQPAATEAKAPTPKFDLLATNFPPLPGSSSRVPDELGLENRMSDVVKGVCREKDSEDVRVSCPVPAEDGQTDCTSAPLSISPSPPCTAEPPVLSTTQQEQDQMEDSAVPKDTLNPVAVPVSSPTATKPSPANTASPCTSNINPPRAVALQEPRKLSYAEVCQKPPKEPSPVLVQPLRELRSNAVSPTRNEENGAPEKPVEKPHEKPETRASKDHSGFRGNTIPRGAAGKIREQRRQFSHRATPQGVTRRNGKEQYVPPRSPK
UniProt Q71RC2: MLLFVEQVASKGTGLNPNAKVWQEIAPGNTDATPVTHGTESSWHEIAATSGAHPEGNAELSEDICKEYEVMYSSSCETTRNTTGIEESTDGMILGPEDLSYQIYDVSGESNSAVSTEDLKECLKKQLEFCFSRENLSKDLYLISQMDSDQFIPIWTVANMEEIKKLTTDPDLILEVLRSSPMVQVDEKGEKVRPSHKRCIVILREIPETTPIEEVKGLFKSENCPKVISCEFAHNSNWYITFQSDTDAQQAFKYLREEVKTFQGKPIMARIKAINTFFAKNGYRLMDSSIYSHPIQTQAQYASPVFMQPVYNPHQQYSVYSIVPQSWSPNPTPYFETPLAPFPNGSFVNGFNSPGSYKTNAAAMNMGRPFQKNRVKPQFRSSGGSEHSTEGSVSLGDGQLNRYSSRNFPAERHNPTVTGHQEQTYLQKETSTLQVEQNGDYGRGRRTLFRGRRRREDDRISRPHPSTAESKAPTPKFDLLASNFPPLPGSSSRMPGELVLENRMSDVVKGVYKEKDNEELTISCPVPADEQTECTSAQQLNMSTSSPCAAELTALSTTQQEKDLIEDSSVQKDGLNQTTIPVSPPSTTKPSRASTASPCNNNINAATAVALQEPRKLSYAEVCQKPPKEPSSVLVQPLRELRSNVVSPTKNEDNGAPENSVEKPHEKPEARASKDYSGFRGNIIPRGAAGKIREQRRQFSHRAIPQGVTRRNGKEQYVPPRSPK

Row | Substance | binding [1] | binding [2] | binding [3] | binding [4]
1 | endogenous human LARP4 of hsSKM cells (from UniProt Q71RC2 1-724) | binds |  |  | 
2 | endogenous mouse Larp4 (La-related protein 4) of MEF cells (from UniProt Q8BWW4 1-719) | binds |  |  | 
3 | His-eGFP-FLNA R21-22 (from UniProt P21333) (domain or fragment) |  | no binding (tested: 2 μM) | binds | binds

— paper PMC10164935
